Test results: PubChem BioAssay AID1347423 (Functional Genomics Laboratory (NCATS/FGL), 2020)
About 210 (0.4%) of roughly 52,000 sequences were called active.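 The calls were made as follows: active = gene whose silencing raises cell survival under the drug, median off-target-corrected z-score across its silencing RNAs 2 or more; inactive = the rest.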 The list shows a part of the results.

Assay: Resistance to Poly (ADP-Ribose) Polymerase inhibitor: Gene Identification via Genome-wide siRNA Screen
Settings: mouse BRCA2 R2336H ES cells, olaparib, CellTiter-Glo viability; active compounds read high
Method in brief: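 Genome-wide siRNA screen (3 siRNAs/gene, 20 nM) in mouse ES cells carrying hypomorphic BRCA2 R2336H; olaparib 500 nM added 48 h post-transfection, CellTiter-Glo viability 72 h later. Normalized to plate-median negative control; MAD z-scores, gene median, seed-adjusted.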

Row | Sequence | z-score
1 | GGUGAAUGUUGGAGACACATT against 2900046G09Rik | inactive: 2
2 | GCACUGCAUUUGAAUAGCATT against Lrfn5 | inactive: 1.44
3 | GGGUAGCUGGCGAAUCAAATT against Ptpro | inactive: 1.43
4 | GGUAAUUUGUUUGUGGUGATT against Mtnr1b | inactive: -0.531
5 | GGGUUAACUUUUGUUCAAUTT against LOC622129 | inactive: 0.285
6 | GCACUGACAAAUCAUGGUATT against 4833439L19Rik | inactive: -1.09
7 | GGAUGAAAUCGCCAUAUGUTT against 6530403A03Rik | inactive: 1.24
8 | GGCAAAAACUACGUGCACCTT against Mapk7 | inactive: 0.177
9 | GCAGGGAUUUCUCGAAUGATT against Pgm1 | inactive: -0.0851
10 | CCAGCUCAUUCAAGAGCAATT against Tmc6 | inactive: 1.39
11 | GGAGAAAUUCAAAGAGAGUTT against Gas2 | inactive: -0.327
12 | CCUACUACUUCGUUAUCCGTT against Chrna2 | inactive: 0.222
13 | GCUACUUCAGUCAAGAACATT against C77668 | inactive: -0.812
14 | GCACAGGUAAUUUGUAAUGTT against Btbd3 | inactive: -0.416
15 | GGGAGCAUCAUGUGAAGAATT against Dnajc5b | inactive: -1.47
16 | GCUGAACGAUGACUAUCCCTT against Cryba4 | inactive: 0.859
17 | CCGUGUCAUCUUGAAAAUUTT against Mtrr | inactive: -1.03
18 | GAAAAGUGCACCAUCAGCCTT against Ly6g5b | inactive: -0.493
19 | CGGUGAUCAAUCAUUGUAATT against Tas2r113 | inactive: 0.579
20 | GAUGCUCUCUGCUCUGAGATT against C030016D13Rik | inactive: -0.831
21 | GGUGUCCAGCAUUUACAUCTT against Agtr2 | inactive: -0.366
22 | CGACCACAGAUAUAAAUUUTT against Tbx5 | inactive: 0.988
23 | GGAUGCCUGAGUGCUACAUTT against Lsm4 | inactive: -0.892
24 | CCUUGAAUAACUGUAUGGUTT against 4833442J19Rik | inactive: -0.659
25 | CGACAAUCGACAAUCGUGCTT against Acta1 | inactive: -0.455
26 | GGAGACACCAGACCAACAATT against LOC432825 | inactive: -0.634
27 | CGUACAUGUCACCUGCUAATT against Them2 | inactive: -0.267

Random excerpt: four entries already listed.
Row | Sequence | z-score
1 | GGUGAAUGUUGGAGACACATT against 2900046G09Rik | inactive: 2
4 | GGUAAUUUGUUUGUGGUGATT against Mtnr1b | inactive: -0.531
27 | CGUACAUGUCACCUGCUAATT against Them2 | inactive: -0.267
3 | GGGUAGCUGGCGAAUCAAATT against Ptpro | inactive: 1.43

(cont.)

Row | Sequence | z-score
28 | GGAUAACUAGCAUUUCCCATT against Ninj2 | inactive: 0.806
29 | GACGAUUCUCUGUUGGUGUTT against Hcrt | inactive: -0.437
30 | GGUCGAUGGUGCUCUGAAGTT against Spry3 | inactive: -0.264
31 | GGGAUGUCUUGGAACAUGCTT against Gm191 | inactive: -1.09
32 | GGUGUAAGGCUGUUGUAUUTT against Cmkor1 | inactive: 1.63
33 | GCUCUUCUGUCCAAAGAUGTT against Pim3 | inactive: -0.132
34 | GGAUCUUCAAGGUUAACCATT against BC006705 | inactive: 0.373
35 | GGAGAUACAAAUUUAAGAGTT against Ttrap | inactive: -0.476
36 | GAUACUUGGCUCCUAGAAGTT against Olfr803 | inactive: -1.11
37 | GGCUGCUACUGACAGAUUATT against Fgd6 | inactive: -0.0207
38 | GGACUUUCGAAGUAAGAUGTT against 5730437N04Rik | inactive: 1.61
39 | GCUGUGGACGGACUCUAUATT against Dhodh | inactive: 0.538
40 | GUGGUUAUCCUGUUUUUUGTT against Olfr1273 | inactive: 0.488
41 | GGGAAGUUUUAUGGUUGAUTT against Rad51c | inactive: -0.0808
42 | GGAGAGUGGCAUUACCUAUTT against Mrg2 | inactive: 0.902
43 | GGAGGCAUAUCUAGGCACUTT against Cdkn1a | inactive: -0.0739
44 | CCUUUGUCCGGUCCAUUCCTT against Hk1 | inactive: -0.331
45 | GGAGGAGAAAAUCAAACCATT against 2810457M08Rik | inactive: -0.47
46 | GGGACUCUAAAAACAAUGATT against Zfp99 | inactive: -1.24
47 | CCUAACCAAGAUCCAAUCUTT against 6330549D23Rik | inactive: -1.31
48 | GGUUGCCAAAUACUGCUGUTT against Ppm1a | inactive: 2.31
49 | GCAUUGAUGUGGUUAUAACTT against 1190005P17Rik | inactive: 0.496
50 | GGCUGUCCUGGUCCAAUAUTT against Slc35a2 | inactive: -0.343
51 | CGAAGGGCAACGGUUCUCATT against Akr1b7 | inactive: 1.53
52 | GGCACAAGACCUUCAGCACTT against Olfr566 | inactive: -0.647
53 | GGCUUCAUGGUUCCCUGUATT against Rhox1 | inactive: -2.39
54 | CCAUCAACCAAUCAUACAGTT against Ddx26 | inactive: 0.816

Row | Sequence | z-score
55 | GGUUCUAUGACAGAAAUGATT against Rngtt | inactive: 1.2
56 | CGUUUUUCUUAUGAUCAGGTT against B930093C12Rik | inactive: -0.248
57 | GCAUGUUCGCACGUGUCAATT against 5330439B14Rik | inactive: 0.469
58 | GGCCGUGUCGUACACUAUGTT against 6430598A04Rik | inactive: -0.118
59 | GCCUUUCUCAUUCAGUCUCTT against V1rb10 | inactive: 0.376
60 | GGAUGUGGAGAACAGCUUCTT against Ppt1 | inactive: -1.82
61 | GGCCCAACGACAUUUAUGUTT against Pop7 | inactive: -0.271
62 | GCUAGCUGUAAAACAUUGCTT against Nppc | inactive: -0.901
63 | GGGCUGGAUUUUGAUGAUGTT against Arnt | inactive: 2.82
64 | CGACCUCAGACUGAAGGACTT against Msr1 | inactive: -1.62
65 | CCUGGCUUACAGUACAUGCTT against Adarb1 | inactive: -0.231
66 | GGCUCUGAUGUUUCUAAAATT against Hdac10 | inactive: 1.07
67 | GGAAACAGCACCUUGUUGATT against Olfr205 | inactive: -0.867
68 | GGUCUGUUUGACAUUAUACTT against Pdha1 | inactive: 0.684
69 | GGUUGUUGUGACCUUCCUGTT against 2310022M17Rik | inactive: 0.125
70 | GGAAAUCCUGAAGUUUCCUTT against Gprk5 | inactive: 0.105
71 | GGAGGUACAGAUAGAGACUTT against Tcl1b4 | inactive: 1.7
72 | GACAUGGACAUCUACACUATT against H2-Q8 | inactive: -0.67
73 | GCCUGAAAUGAAAGUUGCUTT against Olfr1136 | inactive: 0.125
74 | GGGUCAAGUUUACAGAUGATT against Luc7l | inactive: 0.715
75 | CCAAACGAGGACUAAAAAUTT against Xcl1 | inactive: 1.06
76 | GGUCAAAAGACAAUGUGGATT against Git2 | inactive: 0.0985
77 | GCUCUCCAGCUAAAUGACCTT against Lsm3 | inactive: 0.748
78 | CAUCGUUGGAGCUAUAGAUTT against Olfr1098 | inactive: -0.843
79 | GGCUCAUCUCCUAUGACCUTT against Lipe | inactive: 1.44
80 | GGCUGAGGUGGUUACAUUATT against 2010305A19Rik | inactive: 0.0832
81 | GGAGUGUGUGCUUUUAAAATT against Rabggta | inactive: 0.378

Row | Sequence | z-score
82 | GCGUGUUCUAUCCUAUUUCTT against Sqle | inactive: 1.01
83 | GGGACUUCUCCCAAUGUUGTT against Ucp2 | inactive: 1.46
84 | GCUUCGAGUUACAAUGUCATT against LOC382105 | inactive: 0.489
85 | GCCUUUGCUGUUAUACAAUTT against Wdr19 | inactive: -0.0749
86 | GGCUUAUUAGACGGAUGAATT against Rpl7 | inactive: -3.41
87 | GCCAGCUACCGAGUCUAUUTT against Tkt | inactive: -0.959
88 | GCUCUACAAGAAUGCUCGGTT against Vps28 | inactive: 0.105
89 | GAAAUGGGCAGAGAGAUCGTT against Speer3 | inactive: 0.25
90 | GGCUCGUCUCAUGUUUUGGTT against Arfrp1 | inactive: 1.1
91 | GGAAGAAGGAAGGUUCAGATT against Strm | inactive: 0.773
92 | GCUACAUGGAUUGGAUUAATT against C1rl | inactive: 0.594
93 | GGGUGGAGACCAAACAAUATT against Npy1r | inactive: 0.422
94 | GGAAGGAACCGUUCUAUAATT against Serpinc1 | inactive: 0.92
95 | GGAUACAUCUGAUUUAAUGTT against 4921521J11Rik | inactive: 0.571
96 | GGCCCAUCCCACAAUGAUATT against Gm574 | inactive: 0.242
97 | GGAAAUGUUCUUCAUGUCATT against 1110038F14Rik | inactive: -0.409
98 | GGUUAUUAAAGCCUAUGGCTT against Grcc10 | inactive: 0.347
99 | GCUAUCGAAGGAAUAAUACTT against Zfp364 | inactive: -1.27
100 | GGGAGUUAAGAGCAUUCUCTT against Prlpm | inactive: -0.509
101 | GGAUUUCCUCAUGUGAUCUTT against Smad4 | inactive: -0.125
102 | GGAAGUUUGUAGAGUAUGUTT against Xylt1 | inactive: -1.06
103 | GGUAGGAAUUUGGAAAACUTT against H2-T24 | inactive: 0.915
104 | GCAGAUUUUCUCCUGCAAGTT against Insm2 | inactive: -1.38
105 | GGAAGACAUAAAGCUCUGUTT against Olfr1242 | inactive: 0.25
